Laboratory results published in ChEMBL document CHEMBL3259574, “Environmentally benign synthesis and antimicrobial study of novel chalcogenophosphates” (Bioorg Med Chem Lett, 2014).

Tested on: Candida albicans
Test: Antimicrobial activity against Candida albicans MTCC227 assessed as zone diameter at 100 ug/ml after 24 hrs incubation by agar diffusion as say cup method
Format: functional
Summary of the method: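 Agar cup diffusion on nutrient agar plates. Solidified plates were spread with 0.1% cell suspension (10^6 CFU/mL) of the test organism and held 15 min, then 6 mm wells were cut. Samples at 100 µg/mL in DMSO went into the wells, and plates were incubated 24 h at 30–35 °C. Inhibition zone diameter was measured in mm by digital vernier caliper. Triplicate parallel sets gave mean ± standard deviation, compared by ANOVA with Tukey test (P < 0.01).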

NYSTATIN
inhibition zone (IZ): 39.2 mm
